From patent US10882901B2, “Methods of treating diabetes by an adipocyte protein 2 specific antibody” (President and Fellows of Harvard College, priority 2009, dated 2021)

Experiment: Body weight and serum free fatty acids of treated mice
Type: in vivo
Conditions: regular chow diet mice, recombinant aP2 100 μg twice a day for two weeks

B1: recombinant aP2: Recombinant aP2 with 6×His tag produced in E. coli, purified, endotoxin removed (protein)
chain: CDAFVGTWKLVSSENFDDYMKEVGVGFATRKVAGMAKPNMIISVNGDLVTIRSESTFKNTEISFKLGVEFDEITADDRKVKSIITLDGGALVQVQKWDGKSTTIKRKRDGDKLVVECVMKGVTSTRVYERA
- body weight: did not alter body weight
- serum free fatty acid levels: did not alter
